From patent publication US20200085917A1 (UNIVERSITY OF PITTSBURGH OF THE COMMONWEALTH SYSTEM OF …, published 2020)

B1: Dnajc19_IPI:IPI00111111.5 (other, mouse, UniProt Q9CQV7 2-116, looked up)
chain: ASTVVAVGLTIAAAGFAGRYVLQAMKHVEPQVKQVFQSLPKSAFGGGYYRGGFEPKMTKREAALILGVSPTANKGKIRDAHRRIMLLNHPDKGGSPYIAAKINEAKDLLEGQAKK
B2: Tim17a (endogenous, mouse forebrain mitochondria) (other, UniProt Q9Z0V8 1-171, looked up)
chain: MEEYAREPCPWRIVDDCGGAFTMGTIGGGIFQAFKGFRNSPVGINHRLRGSLTAIKTRAPQLGGSFAVWGGLFSTIDCSMVQIRGKEDPWNSITSGALTGAILAARNGPVAMVGSAAMGGILLALIEGAGILLTRFASAQFPNGPQFTEDHSQLPSSQLPSSPFGDYRQYQ
notes: also called Timm17a
B3: Timm17b_IPI:IPI00129504.1 (other, mouse, UniProt Q9Z0V7 1-172, looked up)
chain: MEEYAREPCPWRIVDDCGGAFTMGVIGGGVFQAIKGFRNAPVGIRHRFRGSVNAVRIRAPQIGGSFAVWGGLFSTIDCGLVRLRGKEDPWNSISSGALTGAVLAARSGPLAMVGSAMMGGILLALIEGVGILLTRYTAQQFRNAPPFLEDPSQLTPKEGSPAPGYPNYQQYH
notes: Endogenous protein

target: T1, GST alone (UniProt P08515 1-218 = GST); assay: GST pull-down, LC-MS/MS
T1 construct: Negative control of the pull-downs; also called control GST
Procedure: Extracts were spun at 14,000 r.p.m. at 4° C., and clarified supernatants were incubated with glutathione 4B Sepharose beads (GE Healthcare) at 4° C. overnight. The glutathione beads were then washed extensively with ice-cold TNE buffer, and bound proteins were subjected to SDS-PAGE followed by immunoblotting analysis. For the samples subjected to mass spectrometry, glutathione bead-bound proteins from equal amounts (600 μg) of mitochondria were further washed with high stringency RIPA buffer following TNE buffer wash to decrease nonspecific interaction. Proteins were then eluted from the glutathione beads in SDS sample buffer, separated by SDS-PAGE and stained with Coomassie. Proteins in the gel were digested with trypsin and analyzed by mass spectrometry (LC-MS/MS) at the Taplin Biological Mass Spectrometry Facility (Harvard Medical School, Boston, Mass.).

Binding result, no binding:
B1, B2, B3
